# From the supplement of paper PMC6411743
# Amino acid sequences for entries named in this document (tags omitted). A change or cut given only in a name is not applied to a line headed by its entry.
# UniProt Q9NP72: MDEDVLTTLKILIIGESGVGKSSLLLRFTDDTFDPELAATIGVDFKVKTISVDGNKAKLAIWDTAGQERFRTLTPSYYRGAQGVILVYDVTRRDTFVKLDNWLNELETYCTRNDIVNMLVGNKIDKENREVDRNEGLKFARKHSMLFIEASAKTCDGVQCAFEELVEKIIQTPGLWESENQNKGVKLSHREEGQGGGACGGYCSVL
# UniProt Q9H008: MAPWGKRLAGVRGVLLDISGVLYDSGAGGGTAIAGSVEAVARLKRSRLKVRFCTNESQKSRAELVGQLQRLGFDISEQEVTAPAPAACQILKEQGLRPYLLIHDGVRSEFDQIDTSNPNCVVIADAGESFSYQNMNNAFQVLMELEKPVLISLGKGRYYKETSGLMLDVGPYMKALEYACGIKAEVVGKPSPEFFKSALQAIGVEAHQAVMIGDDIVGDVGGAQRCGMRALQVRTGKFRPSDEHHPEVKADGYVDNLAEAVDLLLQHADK
# UniProt Q9NPF5, whole entry: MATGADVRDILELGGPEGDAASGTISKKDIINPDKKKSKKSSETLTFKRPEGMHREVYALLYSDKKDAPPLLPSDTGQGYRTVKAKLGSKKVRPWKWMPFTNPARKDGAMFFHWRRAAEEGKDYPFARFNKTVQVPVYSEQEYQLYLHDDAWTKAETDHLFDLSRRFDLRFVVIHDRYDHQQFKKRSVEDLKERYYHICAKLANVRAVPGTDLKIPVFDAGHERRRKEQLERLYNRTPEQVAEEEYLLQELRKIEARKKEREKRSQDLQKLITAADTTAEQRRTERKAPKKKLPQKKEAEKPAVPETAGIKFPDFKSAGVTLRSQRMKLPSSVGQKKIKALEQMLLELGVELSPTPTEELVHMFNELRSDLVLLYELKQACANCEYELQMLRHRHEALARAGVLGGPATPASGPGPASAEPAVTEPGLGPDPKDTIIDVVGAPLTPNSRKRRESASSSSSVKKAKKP
# UniProt Q9H5N1: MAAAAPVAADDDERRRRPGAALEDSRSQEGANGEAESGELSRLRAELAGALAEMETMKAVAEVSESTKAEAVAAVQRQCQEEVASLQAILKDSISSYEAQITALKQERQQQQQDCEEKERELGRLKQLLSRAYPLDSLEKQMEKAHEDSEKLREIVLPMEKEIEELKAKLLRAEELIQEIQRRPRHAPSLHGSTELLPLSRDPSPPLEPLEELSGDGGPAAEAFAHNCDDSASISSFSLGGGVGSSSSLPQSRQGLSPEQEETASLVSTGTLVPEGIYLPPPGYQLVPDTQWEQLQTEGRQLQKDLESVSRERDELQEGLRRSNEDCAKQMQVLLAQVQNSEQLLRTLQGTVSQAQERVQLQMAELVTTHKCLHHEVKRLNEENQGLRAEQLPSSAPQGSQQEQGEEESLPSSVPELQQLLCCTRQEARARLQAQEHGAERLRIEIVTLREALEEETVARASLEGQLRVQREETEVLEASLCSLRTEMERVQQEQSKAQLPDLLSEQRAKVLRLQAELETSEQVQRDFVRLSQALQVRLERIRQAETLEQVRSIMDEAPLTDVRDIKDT
# UniProt Q9HBM1: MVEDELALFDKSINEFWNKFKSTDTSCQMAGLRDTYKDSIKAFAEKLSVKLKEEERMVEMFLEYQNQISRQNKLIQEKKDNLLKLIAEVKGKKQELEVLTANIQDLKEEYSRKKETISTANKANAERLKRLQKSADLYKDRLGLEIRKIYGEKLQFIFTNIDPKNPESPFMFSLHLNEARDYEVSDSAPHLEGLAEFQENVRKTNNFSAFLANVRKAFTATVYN
# ± gives the standard deviation of the averaged measurements. The list shows a part of the results.
# Compound: Nc1nc2c(ncn2[C@@H]2O[C@H](COP(=O)(O)OP(=O)(O)OP(=O)(O)O)[C@@H](O)[C@H]2O)c(=O)[nH]1 [guanosine triphosphate]
# Assay: NP40-soluble protein abundance relative to vehicle (solubility fold change) (ratio); higher = more soluble protein in presence of GTP
# Experimental: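 Solubility proteome profiling in Jurkat crude lysate. Lysate was treated with Mg-GTP (0.1-10 mM) for 10 min at room temperature and 3 min at 37 °C, then solubilised with 0.8% NP40 and benzonase, followed by ultracentrifugation. Proteins were quantified by TMT10 LC-MS/MS; the value is the NP40-soluble abundance relative to the NP40-processed vehicle, from 3 independent experiments.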
Target,NP40-soluble protein abundance (concentration: 0.1mM),NP40-soluble protein abundance (concentration: 0.5mM),NP40-soluble protein abundance (concentration: 1mM),NP40-soluble protein abundance (concentration: 2mM),NP40-soluble protein abundance (concentration: 4mM),NP40-soluble protein abundance (concentration: 6mM),NP40-soluble protein abundance (concentration: 8mM),NP40-soluble protein abundance (concentration: 10mM)
UniProt Q9NP72 and related entries,1 ± 0.028,1 ± 0.012,0.907 ± 0.041,0.893 ± 0.039,0.878 ± 0.075,0.888 ± 0.062,0.85 ± 0.096,0.845 ± 0.1
UniProt Q9H008 and related entries,0.971 ± 0.017,0.957 ± 0.032,0.93 ± 0.075,0.934 ± 0.036,0.89 ± 0.052,0.925 ± 0.058,0.86 ± 0.062,0.849 ± 0.07
DMAP1 (UniProt Q9NPF5),1.04 ± 0.056,1.06 ± 0.059,1.11 ± 0.079,1.17 ± 0.099,1.22 ± 0.12,1.24 ± 0.15,1.29 ± 0.2,1.26 ± 0.18
UniProt Q9H5N1 and related entries,0.956 ± 0.012,0.9 ± 0.088,0.953 ± 0.025,0.966 ± 0.067,0.92 ± 0.054,0.937 ± 0.056,0.927 ± 0.047,0.94 ± 0.026
SPC25 (UniProt Q9HBM1),0.948 ± 0.016,0.858 ± 0.07,0.926 ± 0.085,0.897 ± 0.053,0.899 ± 0.038,0.875 ± 0.045,0.869 ± 0.085,0.831 ± 0.056
